{
  "source": "patent US20030100493A1",
  "about": "“Sublingual use of inhibitors in the biosynthesis of cholesterol” (priority 2001, published 2003)",
  "origin": "cited, not measured here",
  "settings": "in vivo",
  "data": [
    {"molecule": "CC(C)c1c(C(=O)Nc2ccccc2)c(-c2ccccc2)c(-c2ccc(F)cc2)n1CC[C@@H](O)C[C@@H](O)CC(=O)O", "note": "[Atorvastatin]", "values": [
      {"measurement": "passage of the blood brain barrier", "value": "do not pass the blood brain barrier"}
    ]}
  ]
}
